Experimental data: PubChem BioAssay AID1508597 (Cure First, 2020)
Purpose: 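Survival screen with siRNA in ovarian cancer cells derived from patients, with or without rucaparib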 (primary screen). System: human ovarian carcinoma lines grown from tumours: OCI-P5x (papillary serous) and OCI-C5x (clear cell). Reagents: siRNA pool against human genes, 1.25 pmol siRNA per well. Timing: 72 h or 96 h, depending on the cell culture. Conditions: rucaparib 20 µM (about IC30) or vehicle, present until read-out. Rucaparib or vehicle: Rucaparib. Cell line: OCI-C5x (clear cell). Measurement: 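ATP luminescence measured at 72 or 96 h according to the culture, then normalised and expressed as percent viability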. Reading the numbers: viability, normalised: higher = more viable cells remaining. Active means: 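Active when normalised viability falls below 80 percent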. Meaning of the calls: active = viability under 80%; inactive = viability 80% or more.
This is a random part of the about 2,100 reagents, under one of the conditions tested. 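Calls flag viability under 80% in either arm, not effects specific to rucaparib; the reference for percent is not stated.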 A reagent listed more than once was tested more than once; the source does not tell the runs apart. No sequences are given here. Not stated in the record: the 100% reference.

gene knocked down | technical replicate | viability, normalised (%) | outcome
ROCK1 (Rho associated coiled-coil containing protein kinase 1) | 1 | 66.2 | active
ROCK1 (Rho associated coiled-coil containing protein kinase 1) | 2 | 48.5 | active
ROCK1 (Rho associated coiled-coil containing protein kinase 1) | 3 | 61 | active
CAMK1D (calcium/calmodulin dependent protein kinase ID) | 1 | 65.5 | active
CAMK1D (calcium/calmodulin dependent protein kinase ID) | 2 | 62.4 | active
CAMK1D (calcium/calmodulin dependent protein kinase ID) | 3 | 73.4 | active
RPS9 (ribosomal protein S9) | 1 | 46.7 | active
RPS9 (ribosomal protein S9) | 2 | 51.8 | active
RPS9 (ribosomal protein S9) | 3 | 54 | active
PRKAR2B | 1 | 86 | inactive
PRKAR2B | 2 | 80.1 | inactive
PRKAR2B | 3 | 63.2 | active
DGKD (diacylglycerol kinase delta) | 1 | 77.3 | active
DGKD (diacylglycerol kinase delta) | 2 | 81.5 | inactive
DGKD (diacylglycerol kinase delta) | 3 | 69.5 | active
FGF19 (fibroblast growth factor 19) | 1 | 29 | active
FGF19 (fibroblast growth factor 19) | 2 | 28.2 | active
FGF19 (fibroblast growth factor 19) | 3 | 38.6 | active
RAD18 (RAD18 E3 ubiquitin protein ligase) | 1 | 33.6 | active
RAD18 (RAD18 E3 ubiquitin protein ligase) | 1 | 65.2 | active
RAD18 (RAD18 E3 ubiquitin protein ligase) | 2 | 54.7 | active
RAD18 (RAD18 E3 ubiquitin protein ligase) | 2 | 48.7 | active
RAD18 (RAD18 E3 ubiquitin protein ligase) | 3 | 46.4 | active
RAD18 (RAD18 E3 ubiquitin protein ligase) | 3 | 48 | active
SMPD3 (sphingomyelin phosphodiesterase 3) | 1 | 74.4 | active
SMPD3 (sphingomyelin phosphodiesterase 3) | 2 | 71.2 | active
SMPD3 (sphingomyelin phosphodiesterase 3) | 3 | 76.9 | active
CDH2 (cadherin 2) | 1 | 92.7 | inactive
CDH2 (cadherin 2) | 2 | 76 | active
CDH2 (cadherin 2) | 3 | 51.8 | active
GDPD1 (glycerophosphodiester phosphodiesterase domain containing 1) | 1 | 50 | active
GDPD1 (glycerophosphodiester phosphodiesterase domain containing 1) | 2 | 38.2 | active
GDPD1 (glycerophosphodiester phosphodiesterase domain containing 1) | 3 | 62.8 | active
DDX27 (DEAD-box helicase 27) | 1 | 65.1 | active
DDX27 (DEAD-box helicase 27) | 2 | 44.7 | active
DDX27 (DEAD-box helicase 27) | 3 | 50.6 | active
STK38L (serine/threonine kinase 38 like) | 1 | 92.9 | inactive
STK38L (serine/threonine kinase 38 like) | 2 | 121 | inactive
STK38L (serine/threonine kinase 38 like) | 3 | 92.9 | inactive

A stretch taken from the entries so far:
gene knocked down | technical replicate | viability, normalised (%) | outcome
PRKAR2B | 1 | 86 | inactive
PRKAR2B | 2 | 80.1 | inactive
